The text below walks through data of PubChem BioAssay AID264 (DTP/NCI, 2004).

The list shows only some results of the screen, not a fair sample: it gathers tests that were run many times, whatever their T/C, doses with no T/C, and many T/C values between a quarter and a half above the control. Other doses and runs of a compound stand elsewhere. T/C is the treated group as % of the vehicle group. Schedule codes are those of the source, taken here to give the interval after Q, in days (D) or hours (H), and the number of doses after X. Some values lie below zero, which means that the treated tumours became smaller. Some entries hold several experiments; their values stand side by side, smallest first. Some T/C values carry the count of animals alive at the toxicity check (mostly the fifth day); where none is given, no animal had died by that day. Some entries give survivors of the animals treated and no T/C: the source files T/C as zero there, which appears to mark a toxic dose or a test without result, not a measured value. Survivors were counted at the toxicity check, usually on the fifth day, unless a day is given; later deaths do not show.

The test has as its system nude mice, LX-1 lung xenograft intrarenal, tumor weight T/C. Kind of test: NCI In Vivo Anticancer Drug Screen. Data for tumor model Human Lung LX-1 Xenograft (intrarenal inoculation) in NU/NU Swiss (nude) mice. As to conditions: T/C endpoint: mean tumor weight change, higher T/C = larger tumour; for T/C: evaluated on day 11. An outline of the steps: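 Activity was scored by measuring tumors in treated animals and in vehicle controls, then reporting the treated result as a fraction of the control result.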
A general note: Xenograft models place foreign cells or tissue in a host animal.

[1] abbreviates: dose: 6.0 mg/kg/injection, schedule: Q04DX003 (sc), vehicle: saline.
Where [2] appears, read: dose: 200.0 mg/kg/injection, schedule: Q01DX010 (sc), vehicle: saline with Tween-80.
Where [3] appears, read: dose: 400.0 mg/kg/injection, schedule: Q01DX010 (sc), vehicle: saline with Tween-80.
Where [4] appears, read: dose: 400.0 mg/kg/injection, schedule: Q04DX003 (sc), vehicle: Klucel (hydroxypropylcellulose) (HPC).
Setting [5] is: dose: 800.0 mg/kg/injection, schedule: Q04DX003 (sc), vehicle: Klucel (hydroxypropylcellulose) (HPC).
Where [6] appears, read: dose: 400.0 mg/kg/injection, schedule: Q01DX010 (sc), vehicle: Klucel (hydroxypropylcellulose) (HPC).
Where [7] appears, read: dose: 2.0 mg/kg/injection, schedule: Q01DX010 (sc), vehicle: saline.
The mark [8] stands for this setting: dose: 4.0 mg/kg/injection, schedule: Q01DX010 (sc), vehicle: saline.
Setting [9] is: dose: 2400.0 mg/kg/injection, schedule: Q04DX003 (sc), vehicle: saline with Tween-80.
Setting [10] is: dose: 16.0 mg/kg/injection, schedule: Q01DX010 (sc), vehicle: saline.
Setting [11] is: dose: 32.0 mg/kg/injection, schedule: Q01DX010 (sc), vehicle: saline.
Where [12] appears, read: dose: 64.0 mg/kg/injection, schedule: Q01DX010 (sc), vehicle: saline.
Setting [13] is: dose: 200.0 mg/kg/injection, schedule: Q04DX003 (sc), vehicle: Klucel (hydroxypropylcellulose) (HPC).
The mark [14] stands for this setting: dose: 300.0 mg/kg/injection, schedule: Q04DX003 (sc), vehicle: saline with Tween-80.

For the compound `CCN1/C(=C/C=C/C=C/c2sc3ccccc3[n+]2CC)Sc2ccccc21`, under “dose: 3.0 mg/kg/injection, schedule: Q04DX003 (sc), vehicle: saline”, the T/C was 135 % of control [4 of 6 alive on day 11]. Besides, the survivor count is 0 of 6 on day 11 under setting [1] and 0 of 6 on day 11 (dose: 12.0 mg/kg/injection, schedule: Q04DX003 (sc), vehicle: saline).

On to `COC(=O)Nc1ccc(Cc2ccc(NC(=O)OC)cc2)cc1`, for which the T/C reads like this: (dose: 100.0 mg/kg/injection, schedule: Q01DX010 (sc), vehicle: saline with Tween-80) 131 % of control; under setting [2], 128 % of control; under setting [3], 135 % of control.

In the case of `O=C(O)/C=C/C(=O)Nc1ccc(Cl)c(Cl)c1`, the survivor count was 3 of 6 on day 11 under setting [4] and 2 of 6 on day 11 under setting [5].

Take `Nc1ccccc1N`: under “dose: 50.0 mg/kg/injection, schedule: Q01DX010 (sc), vehicle: Klucel (hydroxypropylcellulose) (HPC)”, the T/C was 149 % of control [2 of 2 alive on day 11]. In addition, the survivor count was 0 of 3 on day 11 (dose: 200.0 mg/kg/injection, schedule: Q01DX010 (sc), vehicle: Klucel (hydroxypropylcellulose) (HPC)); 0 of 3 on day 11 under setting [6]; 0 of 3 on day 11 (dose: 800.0 mg/kg/injection, schedule: Q01DX010 (sc), vehicle: Klucel (hydroxypropylcellulose) (HPC)).

`CCCCCCCCSC1=C(Cl)C(=O)C(OC)=C(OC)C1=O`: the survivor count (dose: 288.0 mg/kg/injection, schedule: Q04DX003 (sc), vehicle: saline with Tween-80) is on record as 0 of 6 on day 11.

On to `CN1CCN(Cc2nc3cccc4c3c([n+]2[O-])-c2ccccc2-4)CC1`, for which the survivor count (dose: 50.0 mg/kg/injection, schedule: Q01DX010 (sc), vehicle: saline with Tween-80) was 1 of 3 on day 11; the survivor count under setting [2] was 1 of 3 on day 11; the survivor count under setting [3] was 0 of 2 on day 11.

For the compound `Clc1ccc(C2SC=Cc3ccccc32)cc1` (centres undefined), where the note is “dose: 2400.0 mg/kg/injection, schedule: Q04DX003 (sc), vehicle: Klucel (hydroxypropylcellulose) (HPC)”, the survivor count is 3 of 6 on day 11.

In the case of `NC(=O)c1ncn(C2OC(CO)C(O)C2O)n1` (centres undefined), for the setting “dose: 2400.0 mg/kg/injection, schedule: Q04DX003 (sc), vehicle: saline”, the survivor count is recorded as 0 of 6 on day 11.

With `C=C1C(C)C2C(Cc3ccccc3)NC(=O)C23C(OC(C)=O)/C=C/C(C)(O)CC(C)C/C=C/C3C1O` (centres undefined), the survivor count (dose: 25.0 mg/kg/injection, schedule: Q04DX003 (sc), vehicle: Klucel (hydroxypropylcellulose) (HPC)) is 3 of 6 on day 11 and the survivor count (dose: 50.0 mg/kg/injection, schedule: Q04DX003 (sc), vehicle: Klucel (hydroxypropylcellulose) (HPC)) is on record as 2 of 6 on day 11.

In the case of `CSCS(=O)C[C@H](CO)NC(=O)/C=C/c1c(C)[nH]c(=O)[nH]c1=O` (some centres undefined), the survivor count under setting [1] is reported as 0 of 6 on day 11.

For `CO[C@H](C(=O)[C@@H](O)[C@@H](C)O)[C@@H]1Cc2cc3cc(OC4CC(OC5CC(O)C(O)C(C)O5)C(O)C(C)O4)c(C)c(O)c3c(O)c2C(=O)[C@H]1OC1CC(OC2CC(OC3CC(C)(O)C(O)C(C)O3)C(O)C(C)O2)C(O)C(C)O1` (some centres undefined), the survivor count runs as follows: under setting [7], 0 of 3 on day 11; under setting [8], 0 of 3 on day 11; under setting [1], 1 of 6 on day 11.

Consider `COC1(OC)C2C=CC1CC2`, for which, under setting [9], the survivor count is listed as 0 of 6 on day 11.

With `Cc1c(N)nc([C@H](CC(N)=O)NC[C@H](N)C(N)=O)nc1C(=O)N[C@H](C(=O)N[C@H](C)[C@@H](O)[C@H](C)C(=O)N[C@H](C(=O)NCCc1nc(-c2nc(C(=O)NCCC[S+](C)C)cs2)cs1)[C@@H](C)O)C(OC1OC(CO)C(O)C(O)C1OC1OC(CO)C(O)C(OC(N)=O)C1O)c1cnc[nH]1` (some centres undefined), the T/C is 16, 54, 57, 76, 106 % of control [2 of 3 alive on day 11] (dose: 8.0 mg/kg/injection, schedule: Q01DX010 (sc), vehicle: saline); 15 [2 of 2 alive on day 11], 17, 30, 44 % of control under setting [10]; 3, 14 [2 of 3 alive on day 11], 28 % of control under setting [11]; 15 % of control [4 of 6 alive on day 11] under setting [12]. The survivor count is 0 of 3 on day 11 under setting [10]; 0 of 3 on day 11 and 1 of 3 on day 11 under setting [11]; 0 of 2 on day 11 and 0 of 3 on day 11 under setting [12]; 0 of 3 on day 11 (dose: 64.0 mg/kg/injection, schedule: Q04DX003 (sc), vehicle: saline); 0 of 3 on day 11 (dose: 128.0 mg/kg/injection, schedule: Q04DX003 (sc), vehicle: saline).

Turning to `O=S(=O)(SC(S(=O)(=O)c1ccccc1)S(=O)(=O)c1ccccc1)c1ccccc1`, the T/C under setting [13] is 125 % of control and the T/C under setting [5] is 129 % of control. The survivor count (dose: 1600.0 mg/kg/injection, schedule: Q04DX003 (sc), vehicle: Klucel (hydroxypropylcellulose) (HPC)) is 3 of 6 on day 11.

`[N-]=[N+]=C1N=CN=C1c1ncn[nH]1`: the T/C (dose: 25.0 mg/kg/injection, schedule: Q01DX010 (sc), vehicle: Klucel (hydroxypropylcellulose) (HPC)) was 128 % of control. Also, where the note is “dose: 100.0 mg/kg/injection, schedule: Q01DX010 (sc), vehicle: Klucel (hydroxypropylcellulose) (HPC)”, the survivor count was 0 of 3 on day 11.

Regarding `CC(=O)OCC1OC(n2cc(CBr)nn2)C(OC(C)=O)C(OC(C)=O)C1OC(C)=O` (centres undefined), the T/C under setting [2] is 130 % of control.

Turning to `Clc1cc(Cl)c(C[N+]23CN4CN(CN(C4)C2)C3)cc1Cl`, the survivor count under setting [14] is given as 3 of 6 on day 11; the survivor count (dose: 600.0 mg/kg/injection, schedule: Q04DX003 (sc), vehicle: saline with Tween-80) is reported as 0 of 6 on day 11; the survivor count (dose: 1200.0 mg/kg/injection, schedule: Q04DX003 (sc), vehicle: saline with Tween-80) was 0 of 6 on day 11; the survivor count under setting [9] was 0 of 6 on day 11.

As to `CN(C)/N=N/c1nc[nH]c1C(N)=O`, the T/C was 1, 21, 36, 66 % of control (dose: 100.0 mg/kg/injection, schedule: Q04DX003 (sc), vehicle: Klucel (hydroxypropylcellulose) (HPC)); -47 [2 of 2 alive on day 11], 6, 12, 34 % of control under setting [13]; -14, 12, 19 % of control under setting [4]; -40, -4 [2 of 3 alive on day 11], 20 [2 of 3 alive on day 11], 80 % of control under setting [5]. Also, the survivor count under setting [6] was 1 of 3 on day 11.

Regarding `COC(=O)C[C@](O)(CCCC(C)(C)O)C(=O)O[C@@H]1C(OC)=C[C@]23CCCN2CCc2cc4c(cc2[C@H]13)OCO4`, the survivor count by setting is: under setting [7], 1 of 3 on day 11; under setting [8], 0 of 3 on day 11.

For the compound `OCCOCC(F)(F)F`, the T/C (dose: 600.0 mg/kg/injection, schedule: Q04DX003 (sc), vehicle: saline) was 126 % of control. Further, the survivor count (dose: 4800.0 mg/kg/injection, schedule: Q04DX003 (sc), vehicle: saline) is listed as 0 of 6 on day 11.

On to `OC1CCCC2CCCNC12` (centres undefined), for which the survivor count under setting [14] is on record as 1 of 6 on day 11.
